Data as given in patent publication US11077115B2, “Rorgamma modulators and uses thereof” (Genfit, priority 2017, dated 2021).
Some of these results come from one statement about several compounds together. For at least one compound, name, drawing or mass did not settle the structure.

Target: T1, human RORγt (Homo sapiens, UniProt P51449)
T1 sequence (P51449 1-497 isoform P51449-2): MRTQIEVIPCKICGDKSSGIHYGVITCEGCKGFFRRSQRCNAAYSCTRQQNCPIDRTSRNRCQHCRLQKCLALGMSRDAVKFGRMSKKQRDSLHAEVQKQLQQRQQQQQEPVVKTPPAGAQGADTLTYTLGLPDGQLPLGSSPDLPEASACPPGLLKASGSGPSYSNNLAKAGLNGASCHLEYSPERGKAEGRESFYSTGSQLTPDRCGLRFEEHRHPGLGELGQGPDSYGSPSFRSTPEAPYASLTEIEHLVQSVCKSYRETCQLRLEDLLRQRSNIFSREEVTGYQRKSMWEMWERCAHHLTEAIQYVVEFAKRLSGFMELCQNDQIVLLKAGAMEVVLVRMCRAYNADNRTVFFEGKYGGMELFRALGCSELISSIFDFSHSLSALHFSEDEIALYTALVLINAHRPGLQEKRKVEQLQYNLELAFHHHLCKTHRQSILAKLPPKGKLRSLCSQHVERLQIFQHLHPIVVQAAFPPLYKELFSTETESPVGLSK
Test: RORE Luciferase/RORγt transactivation assay (IL-17 promoter luciferase reporter in COS-7 cells)
Assay type: cell-based
Design: V5-His (named only through the vector pcDNA3.1D/V5-His-TOPO); expressed in transfected cells; host or cells: COS-7 (monkey kidney)
Settings: RORγt activity inhibition, luciferase activity in transfected COS-7 cells, 20 h
Procedure: It is well known that RORγ binds to a conserved non-coding sequence (CNS) enhancer element in the IL-17 promoter.
Culture medium was changed every 2 days.
The 4.3 Kb human IL-17 promoter containing the RORγ-specific CNS enhancer element was PCR amplified from human genomic DNA and cloned into a pGL3-TKLuc2Cp reporter plasmid.
The luciferase reporter plasmid and the RORγt overexpression plasmid were transfected into COS-7 cell line using 4 μL JetPEI™/μg of DNA. Briefly, 150 ng of DNA (ration 1/2 between RORE-Tk Luc2Cp and cDNA RORγt or the empty vector for the negative control) was served to transfect adherent COS-7 cells in a […] culture flask, in complete medium (see cos-7 cell line culture).
Cells were then detached (using trypsin) and washed by centrifugation at 300 g for 10 minutes. Cell pellet was resuspended in serum free/phenol red free DMEM and seeded in 384 well plates at a density of 10000 cells/well and then incubated for 4 h at 37° C.
Compounds were dissolved in 100% DMSO to obtain 10 mM stock solutions. […]
The luciferase activity was then measured with 40 μL/well steady-Glo Luciferase assay system (Promega, Madison, Wis.) and after incubation at room temperature for 30 minutes. The luminescence was estimated using the Ultra384 reader (TECAN). Data were collected and analyzed using GraphPad Prism software (GraphPad Software V5.02, San Diego Calif. USA). […]

Cc1ccc([C@H](NC(=O)Cc2cnc(N3CCS(=O)(=O)CC3)nc2)c2ccc(Cl)cc2C)o1 [Cpd. 49, N—[(R4-chloro-2-methylphenyl)(5-methylfuran-2-yl)methyl]-2-[2-(1,1-dioxo-1-thiomorpholin-4-yl)pyrimidin-5-yl]acetamide]
IC50: < 0.1 µM
